Laboratory results from publication PMC5550846.
No constants are given. Whether binding was seen depends on the method and setting. In cells and extracts the contact can be indirect. Some results given as binding are weak or reduced against the parent protein; the word gives no strength. For part of these data: Tags and fused reporters may be left off the sequences shown. Values belong to the molecule of their own block, whether it stands above or below them.

Legend:
[1] = biological target: T1, sphingosine kinase 2 (SPK2), HA-tagged, mouse (mouse) (UniProt Q9JIA7); experiment: co-IP; lysates of stable LV-SPK2-HT22 cells; immunoprecipitated with anti-HA and blotted for Bcl-2, or immunoprecipitated with anti-Bcl-2 and blotted for HA; lysis buffer Tris-HCl 50 mM pH 7.4, NaCl 150 mM, 0.05% sodium deoxycholate, 1% NP40
T1 sequence: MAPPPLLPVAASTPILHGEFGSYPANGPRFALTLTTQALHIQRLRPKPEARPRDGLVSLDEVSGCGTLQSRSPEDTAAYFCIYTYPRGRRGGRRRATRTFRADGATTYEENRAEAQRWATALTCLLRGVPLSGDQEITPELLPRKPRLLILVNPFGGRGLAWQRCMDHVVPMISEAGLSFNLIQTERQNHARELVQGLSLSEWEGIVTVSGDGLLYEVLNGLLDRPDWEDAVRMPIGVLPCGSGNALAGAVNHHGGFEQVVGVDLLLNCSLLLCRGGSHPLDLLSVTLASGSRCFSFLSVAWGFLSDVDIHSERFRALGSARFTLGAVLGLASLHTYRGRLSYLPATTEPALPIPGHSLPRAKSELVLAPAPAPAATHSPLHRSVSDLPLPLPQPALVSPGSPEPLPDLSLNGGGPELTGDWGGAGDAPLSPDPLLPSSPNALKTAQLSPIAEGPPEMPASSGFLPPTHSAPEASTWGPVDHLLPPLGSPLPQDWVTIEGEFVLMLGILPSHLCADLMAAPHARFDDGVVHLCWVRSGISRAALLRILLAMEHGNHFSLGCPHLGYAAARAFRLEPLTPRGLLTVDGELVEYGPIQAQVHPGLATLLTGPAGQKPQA

[2] = biological target: T2, Bcl-2 (endogenous, mouse neural cells) (mouse (endogenous in HT22 and primary cortical neurons)), P10417; experiment: co-IP; lysates of primary murine cortical neurons infected with LV-vector or LV-SPK2; immunoprecipitated with anti-Bcl-2 and protein G-agarose, blotted for Beclin-1; lysis buffer Tris-HCl 50 mM pH 7.4, NaCl 150 mM, 0.05% sodium deoxycholate, 1% NP40; conditions: remark: other sources report otherwise
T2 chain: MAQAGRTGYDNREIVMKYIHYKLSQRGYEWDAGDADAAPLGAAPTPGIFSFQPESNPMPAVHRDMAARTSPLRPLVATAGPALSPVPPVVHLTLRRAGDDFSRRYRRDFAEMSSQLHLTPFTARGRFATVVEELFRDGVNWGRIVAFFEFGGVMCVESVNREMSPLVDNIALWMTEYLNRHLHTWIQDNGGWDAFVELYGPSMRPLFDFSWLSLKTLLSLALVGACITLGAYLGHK

[3] = biological target: Bcl-2 (endogenous, mouse neural cells) (mouse (endogenous in HT22 and primary cortical neurons)) (UniProt P10417); experiment: co-IP; lysates of stable LV-SPK2-HT22 cells; immunoprecipitated with anti-HA and blotted for Bcl-2, or immunoprecipitated with anti-Bcl-2 and blotted for HA; lysis buffer Tris-HCl 50 mM pH 7.4, NaCl 150 mM, 0.05% sodium deoxycholate, 1% NP40

binding [1]: binds
Molecule: Bcl-2 (endogenous, mouse neural cells) (from UniProt P10417 1-236)

binding [2]: binds
B1: Beclin-1 (endogenous, mouse cortical neurons), O88597 1-448 (protein)
chain: MEGSKASSSTMQVSFVCQRCSQPLKLDTSFKILDRVTIQELTAPLLTTAQAKPGETQEEEANSGEEPFIETRQDGVSRRFIPPARMMSTESANSFTLIGEASDGGTMENLSRRLKVTGDLFDIMSGQTDVDHPLCEECTDTLLDQLDTQLNVTENECQNYKRCLEILEQMNEDDSEQLQRELKELALEEERLIQELEDVEKNRKVVAENLEKVQAEAERLDQEEAQYQREYSEFKRQQLELDDELKSVENQVRYAQIQLDKLKKTNVFNATFHIWHSGQFGTINNFRLGRLPSVPVEWNEINAAWGQTVLLLHALANKMGLKFQRYRLVPYGNHSYLESLTDKSKELPLYCSGGLRFFWDNKFDHAMVAFLDCVQQFKEEVEKGETRFCLPYRMDVEKGKIEDTGGSGGSYSIKTQFNSEEQWTKALKFMLTNLKWGLAWVSSQFYNK

binding [3]: binds
B2: sphingosine kinase 2 (SPK2), HA-tagged, mouse (enzyme, UniProt Q9JIA7 1-617)
chain: T1 sequence
